According to patent US20080145375A1, “Vaccination” (Glaxo Group Limited, priority 2003, published 2008):
At least one structure is not confirmed: it was looked up by name or label, or the drawing left a doubt.

Test system: human monocyte derived DC
Assay: Response of IFNγ pre-treated DC to resiquimod (cytokines, surface markers)
Assay type: cell-based
Conditions: IFNγ for 24 hours or untreated before resiquimod; FIG. 7

## CCOCc1nc2c(N)nc3ccccc3c2n1CC(C)(C)O [resiquimod]
  responsiveness of DC to resiquimod (cell surface markers, cytokine production, functional capacity): IFNγ pre-treatment increased the responsiveness
